# This is one part of the list. Further columns of the screen follow, without active or inactive calls. The list favours compounds with an active or inconclusive main result. Potencies come from curve fits of mixed quality, noted in brackets.
# Experiment: qHTS Assay for Lipid Storage Modulators in Drosophila S3 Cells;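 as to cell number change: cells counted by Cell Tracker Red CMTPX staining in the red channel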
# Details: BODIPY lipid droplet fluorescence, 18-24 h; for cell number change: measured here: cell count max response, cells fed with added oleic acid
# How it was run: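 Drosophila S3 cells loaded with oleic acid (400 uM, as added) and compounds at several concentrations; lipid droplets imaged by 488-nm laser-scanning cytometry, 500–530 nm intensity and object ratio to cell channel. Percent activity normalized to 20 uM Triacsin C.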
# [1] = measured here: lipid fluorescence (Fed channel) AC50, cells fed with added oleic acid
# [2] = measured here: cell number channel AC50, cells fed with added oleic acid
Structure (SMILES),cell number change,AC50 [1],AC50 [2]
CC(=O)c1c(C)[nH]c(C(=O)OCC(=O)Nc2ncc(Cl)c(C)c2Cl)c1C,-13.2%,"7.31 µM [rising, partial curve]",–
COc1cccc(NC(=O)Nc2ccc3nsnc3c2)c1,10.3%,–,–
CCn1nnc(NC(=O)COc2cc(C)ccc2C(C)C)n1,–,"6.51 µM [falling, single point]",–
CSc1nc2sc3c(c2c(=O)n1C)CCC3,12.4%,–,–
COc1cc(OC)cc(-c2cc(N3C(=O)Nc4ccccc4N3O)n[nH]2)c1,30.2%,"10.3 µM [rising, partial curve]","29.1 µM [rising, single point]"
CC(=O)N1C(Nc2ccc(Cl)cc2)CCN1c1ccccc1 (centres undefined),-106%,"18.4 µM [falling, partial curve]","7.31 µM [falling, partial curve, poor fit]"
Cc1ccc(OCC(=O)N(Cc2ccco2)C2CCS(=O)(=O)C2)cc1 (centres undefined),-5.73%,"23.1 µM [rising, single point]",–
CCCn1nc2cc(C(=O)NCc3ccccc3)ccc2c1OCC,-22.6%,"1.84 µM [falling, partial curve]",–
CCCC(=O)N1CCC(CCC(=O)NC2CC2)CC1,15.3%,"0.58 µM [falling, single point]",–
CN(Cc1ccccc1)C(=O)CCC1CCN(C(=O)c2ccccc2C(F)(F)F)CC1,-1.08%,"0.0651 µM [falling, full curve, poor fit]",–
O=C(Nc1cccc(O)c1)c1cc(-c2cccs2)on1,14.2%,"1.64 µM [falling, partial curve]",–
NC(=O)c1nsc(C(=O)N(c2ccccc2)C(C(=O)NCC2CCCO2)c2ccc(F)cc2)c1N (centres undefined),-1.74%,"18.4 µM [falling, partial curve, poor fit]",–
CCCc1nc2ccccc2c(=O)n1/N=C/c1c(C)[nH]n(-c2ccc(C)cc2)c1=O,-14.7%,"0.92 µM [rising, full curve]",–
CC(C)OCCCNC(=O)C1CCC(CNS(=O)(=O)c2ccc(Cl)cc2)CC1 (centres undefined),-2.17%,"0.291 µM [falling, partial curve, poor fit]","0.291 µM [falling, partial curve, poor fit]"
COc1ccc(C(=O)N2CCC(C(=O)O)CC2)c2ccccc12,38.8%,"1.16 µM [rising, single point]","25.9 µM [rising, single point]"
CC1CCC(C(C)C)C(OC(=O)C[n+]2cc(-c3ccc(Cl)cc3)n3c2CCC3)C1 (centres undefined),-65.5%,"29.1 µM [falling, single point]","23.1 µM [falling, partial curve, poor fit]"

# Some entries already given with just AC50 [1]:
Structure (SMILES)	AC50 [1]
CC(=O)N1C(Nc2ccc(Cl)cc2)CCN1c1ccccc1 (centres undefined)	18.4 µM [falling, partial curve]
Cc1ccc(OCC(=O)N(Cc2ccco2)C2CCS(=O)(=O)C2)cc1 (centres undefined)	23.1 µM [rising, single point]
